Data as given in PubChem BioAssay AID1159584 (Peter MacCallum Cancer Centre, 2016).

- Test: 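Knock-downs that harm CDH1-null cells more than parental MCF10A cells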 (primary screen)
- Cells: human MCF10A breast epithelial cells, parental and CDH1-null
- Reagent: siRNA against human genes
- Read-out: 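Cell viability by CellTiter-Glo ATP luminescence, each line scaled to the mean of mock wells across plates, then CDH1-null over parental ratio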
- Direction: CDH1-null / parental viability ratio: higher = CDH1-null cells survive relatively better than parental; CDH1-null viability vs mock: higher = more viable CDH1-null cells; parental viability vs mock: higher = more viable parental cells
This is one part, drawn at random, of about 18,000 deposited reagents. The numbers tell different reagents against one gene apart. Not given: the amount of reagent, the time to read-out.

no.	gene knocked down	siRNA no.	CDH1-null / parental viability ratio	CDH1-null viability vs mock (fraction of mock)	parental viability vs mock (fraction of mock)
1	CNGA2	1	1.13	0.88	0.78
2	REEP4	1	0.7	0.59	0.84
3	NAB2	1	1.02	0.86	0.84
4	CKMT1A	1	1.53	0.89	0.58
5	AMELY	1	1.27	0.94	0.74
6	PCDHB15	1	0.89	0.64	0.72
7	ADAMTS20	1	1.14	0.92	0.81
8	RANBP2	1	1.2	0.9	0.75
9	BRSK2	1	1.05	0.84	0.8
10	CFAP206	1	1.05	0.9	0.86
11	BBLN	1	1.42	0.68	0.48
12	ALKBH3	1	1.02	1.08	1.06
13	CHORDC1	1	1.24	0.78	0.63
14	ALOX12B	1	1.27	1.02	0.8
15	SLC25A39	1	0.82	0.72	0.88
16	ZNF322P1	1	2.69	0.7	0.26
17	NEK9	1	0.99	0.74	0.75
18	AIFM2	1	0.82	0.49	0.6
19	EIF4ENIF1	1	0.7	0.66	0.94
20	TRAPPC5	1	0.98	0.82	0.84
21	IGFBP4	1	0.81	0.57	0.7
22	ADAMTS7	1	1.25	0.95	0.76
23	C2orf15	1	0.97	0.66	0.68
24	MMACHC	1	1.01	0.76	0.75
25	LRRC20	1	1	0.78	0.78
26	POPDC1	1	1.07	1.18	1.1
27	NAXD	1	0.74	0.57	0.77
28	MEPE	1	0.92	0.48	0.52
29	UGT2B7	1	0.65	0.74	1.14
30	LGI4	1	0.87	1.1	1.26
31	RFNG	1	1.03	1.07	1.04
32	LY6G6F	1	1.12	0.86	0.77
33	RUMY4	1	0.97	0.91	0.94
34	PCDHAC1	1	1.17	1.02	0.87
35	NOS2	1	0.93	0.93	1
36	CYB5R2	1	0.99	0.82	0.83
37	EHD1	1	1.02	0.52	0.51
38	PPP2R5E	1	1.1	0.86	0.78
39	STAG3L3	1	1.19	0.89	0.75
40	RAB44	1	1.12	0.85	0.76
41	STMN1	1	1.02	1	0.98
42	TLE6	1	1.16	0.66	0.57
43	CDYL2	1	1.07	0.77	0.72
44	METRN	1	1.22	0.78	0.64
45	AMY1A	1	0.82	0.79	0.96
46	HINFP	1	0.91	0.53	0.58
47	KCNRG	1	1.26	0.93	0.74
48	GBP6	1	1.02	0.84	0.82
49	ZNF598	1	1.35	1.11	0.82
50	FANCI	1	1.11	0.78	0.7
51	CDK20	1	0.87	0.52	0.6
52	RNF19A	1	0.98	0.78	0.8
53	PRKCZ	1	1.56	1.09	0.7
54	SGF29	1	0.97	0.68	0.7
55	FAF1	1	0.87	0.66	0.76
56	TMPRSS11F	1	1.07	0.93	0.87
57	PTPRR	1	1.42	0.88	0.62
58	NKAPL	1	1.28	1.05	0.82
59	ZDHHC12	1	0.93	0.68	0.73
60	CLSTN2	1	1	1.06	1.06
61	CDH22	1	0.92	0.72	0.78
62	GNLY	1	1.12	0.67	0.6
63	DUSP26	1	1.19	0.96	0.81
64	HMGN3	1	1.18	1.07	0.91
65	ZNF546	1	1.04	0.54	0.52
66	ZNF77	1	0.98	0.9	0.92
67	PPP1R15A	1	1.08	0.97	0.9
68	PRG4	1	1.02	0.98	0.96
69	RRM2	1	1.62	0.52	0.32
70	RRM2	2	1.17	0.82	0.7
71	NRN1	1	0.92	0.44	0.48
72	RBBP8	1	1	0.66	0.66
73	INTS4	1	1.42	0.74	0.52
74	ZNF174	1	1.16	0.64	0.55
75	TMEM184A	1	0.98	0.86	0.88
76	ERBB3	1	0.65	0.57	0.88
77	PCDH1	1	1.14	0.92	0.81
78	ADPRH	1	0.68	0.61	0.9
79	WDR35	1	0.91	0.92	1.01
80	BNIP2	1	0.98	0.8	0.82
81	TBC1D21	1	1.07	0.96	0.9
82	HEBP2	1	1.28	1.33	1.04
83	LUZP4	1	0.78	0.63	0.81
84	ABCB11	1	0.99	1.03	1.04
85	ITGAL	1	1	1.06	1.06
86	TNNI3	1	1.05	1.05	1
87	IZUMO1	1	0.9	0.83	0.92

No new results follow: entries from further up.
no.	gene knocked down	siRNA no.	CDH1-null / parental viability ratio	CDH1-null viability vs mock (fraction of mock)	parental viability vs mock (fraction of mock)
20	TRAPPC5	1	0.98	0.82	0.84
21	IGFBP4	1	0.81	0.57	0.7
22	ADAMTS7	1	1.25	0.95	0.76
23	C2orf15	1	0.97	0.66	0.68
24	MMACHC	1	1.01	0.76	0.75
